Reference: article PMC12591158
Results are given in words; binding and its absence hold for the method and conditions named. In cells and extracts the contact can be indirect. Binding can be weak; no strength is given. Sequences can lack the tags named with a protein.

Protein sequences, listed by entry. Tags and fused reporters are not part of them. Lines headed by an entry give the natural chain unless they say otherwise; changes in a name come on top.
UniProt Q14790: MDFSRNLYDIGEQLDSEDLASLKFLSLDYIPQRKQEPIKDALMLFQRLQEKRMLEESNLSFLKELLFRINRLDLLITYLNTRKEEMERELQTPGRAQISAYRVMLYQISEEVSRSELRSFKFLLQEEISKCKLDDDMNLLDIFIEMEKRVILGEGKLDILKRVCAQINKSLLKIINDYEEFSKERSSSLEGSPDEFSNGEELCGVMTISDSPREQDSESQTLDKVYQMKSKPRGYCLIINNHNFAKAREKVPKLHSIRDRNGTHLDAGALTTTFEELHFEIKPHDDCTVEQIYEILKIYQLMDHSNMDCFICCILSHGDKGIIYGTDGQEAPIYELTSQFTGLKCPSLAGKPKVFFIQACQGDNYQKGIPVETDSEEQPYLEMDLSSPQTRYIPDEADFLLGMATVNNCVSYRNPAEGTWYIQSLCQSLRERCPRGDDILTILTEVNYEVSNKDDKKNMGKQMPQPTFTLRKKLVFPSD
UniProt P0DTC6: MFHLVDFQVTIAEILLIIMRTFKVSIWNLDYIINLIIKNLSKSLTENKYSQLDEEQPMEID

Biological target: Myc-CASP8-C (C-terminal construct of caspase-8, small subunit p10) (human) (UniProt Q14790)
Assay: co-IP

| Binder | binding |
| --- | --- |
| SLTENKYSQLDEEQPMEID (domain or fragment, UniProt P0DTC6 43-61) [GFP-ORF6-C (C-terminal domain of SARS-CoV-2 ORF6)] | binds |
| LDEEQPMEID (peptide, UniProt P0DTC6 52-61) [GFP-ORF6-52-61] | binds |
